Data reported in publication PMC9755262 (Nature Communications, 2022).
These are yes or no findings as the source states them, for the method shown. Some binding calls cover weakened binding; strength is not graded here.

Chains of the proteins cited; added tags and fusions are not shown. Residues count along the entry.
UniProt Q86Y26, residues 347-480: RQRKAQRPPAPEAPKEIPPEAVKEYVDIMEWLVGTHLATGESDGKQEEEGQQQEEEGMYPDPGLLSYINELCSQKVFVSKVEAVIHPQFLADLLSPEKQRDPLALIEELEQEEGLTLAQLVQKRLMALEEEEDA

Legend:
NUT4 (347-480) = NUT4 (347-480) (UniProt Q86Y26); test: SEC-MALS; Superdex 75 Increase 10/300 GL, 20 mM HEPES pH 7.0, 300 mM NaCl, 5 µM ZnSO4, 0.5 mM TCEP; 50 µl at 2 mg/ml injected; both purified
[1] = target: Histone H3 (S. cerevisiae, in the NCP) (S. cerevisiae) (UniProt P61830); test: cross-linking; NCPs and p300 core-CH3 (1043-1828) at 0.5-1 mg/ml, 2 mM DSS-H12/D12, 30 min at 35 °C; 20 mM HEPES pH 7.0, 300 mM NaCl, 1 mM DTT, 5 µM ZnCl2; mass spectrometry; both purified

With “NUT4 (347-480) (from UniProt Q86Y26 347-480) (domain or fragment)” the binding (NUT4 (347-480)) was “no binding (tested: 2 mg/ml injected)”.
For “p300 core-CH3 (1043-1828) (from UniProt Q09472 1043-1828) (domain or fragment)”, the binding [1] was “binds”.
